Reference: patent US8216786B2, “Genetic polymorphisms associated with cardiovascular diseases, methods of detection and uses thereof” (Celera Corporation, priority 2008, dated 2012)
The source gives many values for each of these; only a part stands here.

Tested on: individuals who have previously had an MI
Test: CARE trial: effect of pravastatin vs placebo on coronary events (endpt1, rmi) by SNP genotype subgroup
Assay type: in vivo, human
Method: In Tables 21-22, the column labeled “Endpoint” indicates whether the endpoint that was analyzed was the primary endpoint of the CARE study (a composite endpoint of fatal coronary event or nonfatal MI, and identified as “endpt1”) or a composite endpoint of confirmed fatal or nonfatal MI (identified as “rmi”). […] As used herein, the term “benefit” (with respect to a preventive or therapeutic drug treatment) is defined as achieving a reduced risk for a disease that the drug is intended to treat or prevent (e.g., CVD such as CHD, particularly MI, or hypertension) by administering the drug treatment, compared with the risk for the disease in the absence of receiving the drug treatment (or receiving a placebo in lieu of the drug treatment) for the same genotype. […] J. […] (1996) New England Journal of Medicine 335: 1001-1009. […] A well-documented MI was one of the enrollment criteria for entry into the CARE study. Patients were enrolled in the CARE trial from 80 participating study centers. […] For the study of CARE described in this Example and shown in Tables 21-22, two endpoints were investigated: the primary endpoint of CARE (a composite endpoint of fatal coronary event or nonfatal MI, and identified as “endpt1” in the Endpoint column of Tables 21-22) and a composite endpoint of confirmed fatal or nonfatal MI (identified as “rmi” in the Endpoint column of Tables 21-22). […] HR stands for Hazard Ratio, which is a concept similar to Odds Ratio (OR). The HR in event-free survival analysis is the effect of an explanatory variable on the hazard or risk of an event. […] In Table 21, p-interaction values were calculated. An interaction (or effect modification) is formed when a third variable modifies the relation between an exposure and outcome. […] Genotype and drug interaction is present when the effect of statins (incidence rate of disease in statin-treated group, as compared to placebo) differs in patients with different genotypes.

[1] = endpt1, hCV7618856 rs1143675 ITGA4, TT
[2] = endpt1, hCV7841642 rs11666735 FCAR, AG + AA
[3] = endpt1, hCV7841642 rs11666735 FCAR, GG
[4] = endpt1, hCV7900503 rs3732379 CX3CR1, CC
[5] = endpt1, hCV7900503 rs3732379 CX3CR1, TC + TT
[6] = endpt1, hCV16189421 rs1048755 ATXN3, CC
[7] = endpt1, hCV16189421 rs1048755 ATXN3, TC + TT
[8] = endpt1, hCV25651174 rs9277356 HLA-DPB1, AA
[9] = endpt1, hCV25767417 rs3803430 ALDH1A3, AA
[10] = endpt1, hCV25767417 rs3803430 ALDH1A3, GA + GG
[11] = endpt1, hCV25922320 rs12360861 CD6, AG + AA
[12] = endpt1, hCV25922320 rs12360861 CD6, GG
[13] = endpt1, hCV25922440 rs34362748 GALC, CC
[14] = endpt1, hCV25922440 rs34362748 GALC, TC + TT
[15] = endpt1, hCV25922816 rs36013429 PPOX, AG + AA
[16] = endpt1, hCV25922816 rs36013429 PPOX, GG
[17] = endpt1, hCV25926178 rs12882130 MARK3, CC
[18] = endpt1, hCV25926178 rs12882130 MARK3, GC + GG
[19] = endpt1, hCV25926771 rs4906321 MARK3, CT + CC
[20] = endpt1, hCV25926771 rs4906321 MARK3, TT
[21] = endpt1, hCV25927605 HLA-DPA1, CC
[22] = endpt1, hCV25927605 HLA-DPA1, TC + TT
[23] = endpt1, hCV25928135 ADAM12, CT + CC
[24] = endpt1, hCV25941408 rs28497577 MYLK, GG
[25] = endpt1, hCV25941408 rs28497577 MYLK, TG + TT
[26] = endpt1, hCV25942539 rs2401751 PTPN21, AG + AA
[27] = endpt1, hCV25942539 rs2401751 PTPN21, GG
[28] = endpt1, hCV26000635 rs7020782 PAPPA, AA
[29] = endpt1, hCV26000635 rs7020782 PAPPA, CA + CC
[30] = endpt1, hCV2038 rs4673 CYBA, Strata AG + AA
[31] = endpt1, hCV2038 rs4673 CYBA, Strata GG
[32] = endpt1, hCV22303 rs4552916, strata AA
[33] = endpt1, hCV22303 rs4552916, strata GA
[34] = endpt1, hCV22303 rs4552916, strata GG
[35] = endpt1, hCV260164 rs6754295, strata GG
[36] = endpt1, hCV260164 rs6754295, strata TG + TT
[37] = endpt1, hCV461035 rs7746448, strata TC + CC
[38] = endpt1, hCV461035 rs7746448, strata TT
[39] = endpt1, hCV601946 rs524802 ZNF568, strata AA
[40] = endpt1, hCV601946 rs524802 ZNF568, strata AG
[41] = endpt1, hCV601946 rs524802 ZNF568, strata GG
[42] = endpt1, hCV601961 rs568654 ZNF568, strata AA
[43] = endpt1, hCV601961 rs568654 ZNF568, strata AG + GG
[44] = endpt1, hCV601962 rs544543 ZNF568, strata AA
[45] = endpt1, hCV601962 rs544543 ZNF568, strata GA
[46] = endpt1, hCV601962 rs544543 ZNF568, strata GG
[47] = endpt1, hCV610861 rs636887, strata CC
[48] = endpt1, hCV610861 rs636887, strata TC + TT
[49] = endpt1, hCV922535 rs748065, strata AA
[50] = endpt1, hCV922535 rs748065, strata GA
[51] = endpt1, hCV922535 rs748065, strata GG

CC[C@H](C)C(=O)O[C@H]1C[C@H](O)C=C2C=C[C@H](C)[C@H](CC[C@@H](O)C[C@@H](O)CC(=O)O)[C@H]21 [pravastatin]
NONEVENT (Pravastatin arm) (endpt1, hCV7618856 rs1143675 ITGA4, CT + CC): 19
EVENTS (Pravastatin arm) [1]: 127
NONEVENT (Pravastatin arm) [1]: 1264
EVENTS (Pravastatin arm) [2]: 13
NONEVENT (Pravastatin arm) [2]: 183
EVENTS (Pravastatin arm) [3]: 120
NONEVENT (Pravastatin arm) [3]: 1108
EVENTS (Pravastatin arm) [4]: 68
NONEVENT (Pravastatin arm) [4]: 677
EVENTS (Pravastatin arm) [5]: 65
NONEVENT (Pravastatin arm) [5]: 614
EVENTS (Pravastatin arm) [6]: 68
NONEVENT (Pravastatin arm) [6]: 729
EVENTS (Pravastatin arm) [7]: 65
NONEVENT (Pravastatin arm) [7]: 526
EVENTS (Pravastatin arm) [8]: 57
NONEVENT (Pravastatin arm) [8]: 643
EVENTS (Pravastatin arm) [9]: 130
NONEVENT (Pravastatin arm) [9]: 1239
EVENTS (Pravastatin arm) [10]: 3
NONEVENT (Pravastatin arm) [10]: 52
EVENTS (Pravastatin arm) [11]: 62
NONEVENT (Pravastatin arm) [11]: 439
EVENTS (Pravastatin arm) [12]: 70
NONEVENT (Pravastatin arm) [12]: 850
EVENTS (Pravastatin arm) [13]: 103
NONEVENT (Pravastatin arm) [13]: 881
EVENTS (Pravastatin arm) [14]: 30
NONEVENT (Pravastatin arm) [14]: 377
EVENTS (Pravastatin arm) [15]: 14
NONEVENT (Pravastatin arm) [15]: 184
EVENTS (Pravastatin arm) [16]: 119
NONEVENT (Pravastatin arm) [16]: 1075
EVENTS (Pravastatin arm) [17]: 52
NONEVENT (Pravastatin arm) [17]: 478
EVENTS (Pravastatin arm) [18]: 80
NONEVENT (Pravastatin arm) [18]: 786
EVENTS (Pravastatin arm) [19]: 79
NONEVENT (Pravastatin arm) [19]: 778
EVENTS (Pravastatin arm) [20]: 53
NONEVENT (Pravastatin arm) [20]: 482
EVENTS (Pravastatin arm) [21]: 122
NONEVENT (Pravastatin arm) [21]: 1206
EVENTS (Pravastatin arm) [22]: 10
NONEVENT (Pravastatin arm) [22]: 80
EVENTS (Pravastatin arm) [23]: 41
NONEVENT (Pravastatin arm) [23]: 479
EVENTS (Pravastatin arm) (endpt1, hCV25928135 ADAM12, TT): 92
NONEVENT (Pravastatin arm) (endpt1, hCV25928135 ADAM12, TT): 785
EVENTS (Pravastatin arm) [24]: 115
NONEVENT (Pravastatin arm) [24]: 1052
EVENTS (Pravastatin arm) [25]: 18
NONEVENT (Pravastatin arm) [25]: 238
EVENTS (Pravastatin arm) [26]: 63
NONEVENT (Pravastatin arm) [26]: 700
EVENTS (Pravastatin arm) [27]: 70
NONEVENT (Pravastatin arm) [27]: 559
EVENTS (Pravastatin arm) [28]: 51
NONEVENT (Pravastatin arm) [28]: 624
EVENTS (Pravastatin arm) [29]: 82
NONEVENT (Pravastatin arm) [29]: 665
EVENTS (Pravastatin arm) [30]: 89
NONEVENT (Pravastatin arm) [30]: 728
EVENTS (Pravastatin arm) [31]: 44
NONEVENT (Pravastatin arm) [31]: 563
EVENTS (Pravastatin arm) [32]: 86
NONEVENT (Pravastatin arm) [32]: 788
EVENTS (Pravastatin arm) [33]: 37
NONEVENT (Pravastatin arm) [33]: 408
EVENTS (Pravastatin arm) [34]: 13
NONEVENT (Pravastatin arm) [34]: 70
EVENTS (Pravastatin arm) [35]: 9
NONEVENT (Pravastatin arm) [35]: 68
EVENTS (Pravastatin arm) [36]: 127
NONEVENT (Pravastatin arm) [36]: 1195
EVENTS (Pravastatin arm) [37]: 89
NONEVENT (Pravastatin arm) [37]: 785
EVENTS (Pravastatin arm) [38]: 47
NONEVENT (Pravastatin arm) [38]: 481
EVENTS (Pravastatin arm) [39]: 17
NONEVENT (Pravastatin arm) [39]: 175
EVENTS (Pravastatin arm) [40]: 74
NONEVENT (Pravastatin arm) [40]: 554
EVENTS (Pravastatin arm) [41]: 45
NONEVENT (Pravastatin arm) [41]: 536
EVENTS (Pravastatin arm) [42]: 18
NONEVENT (Pravastatin arm) [42]: 190
EVENTS (Pravastatin arm) [43]: 118
NONEVENT (Pravastatin arm) [43]: 1072
EVENTS (Pravastatin arm) [44]: 44
NONEVENT (Pravastatin arm) [44]: 522
EVENTS (Pravastatin arm) [45]: 71
NONEVENT (Pravastatin arm) [45]: 545
EVENTS (Pravastatin arm) [46]: 18
NONEVENT (Pravastatin arm) [46]: 191
EVENTS (Pravastatin arm) [47]: 28
NONEVENT (Pravastatin arm) [47]: 247
EVENTS (Pravastatin arm) [48]: 108
NONEVENT (Pravastatin arm) [48]: 1017
EVENTS (Pravastatin arm) [49]: 74
NONEVENT (Pravastatin arm) [49]: 611
EVENTS (Pravastatin arm) [50]: 48
NONEVENT (Pravastatin arm) [50]: 541
EVENTS (Pravastatin arm) [51]: 14
NONEVENT (Pravastatin arm) [51]: 114
